The list shows a part of the results.

Protein sequences, listed by entry. Tags and fused reporters are not part of them. Lines headed by an entry give the natural chain unless they say otherwise; changes in a name come on top.
UniProt Q9UBW8: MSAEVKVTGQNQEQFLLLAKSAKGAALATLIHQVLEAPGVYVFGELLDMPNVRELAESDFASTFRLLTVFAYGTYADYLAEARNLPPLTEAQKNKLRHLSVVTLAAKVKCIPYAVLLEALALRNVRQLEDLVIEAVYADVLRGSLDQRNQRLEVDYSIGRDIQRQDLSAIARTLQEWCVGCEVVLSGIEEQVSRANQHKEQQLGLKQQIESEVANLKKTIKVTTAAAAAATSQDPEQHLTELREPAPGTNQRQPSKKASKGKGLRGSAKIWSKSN
UniProt P15954, whole entry, looked up: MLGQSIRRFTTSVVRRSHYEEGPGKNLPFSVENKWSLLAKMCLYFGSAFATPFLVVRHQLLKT
UniProt Q9P2I0: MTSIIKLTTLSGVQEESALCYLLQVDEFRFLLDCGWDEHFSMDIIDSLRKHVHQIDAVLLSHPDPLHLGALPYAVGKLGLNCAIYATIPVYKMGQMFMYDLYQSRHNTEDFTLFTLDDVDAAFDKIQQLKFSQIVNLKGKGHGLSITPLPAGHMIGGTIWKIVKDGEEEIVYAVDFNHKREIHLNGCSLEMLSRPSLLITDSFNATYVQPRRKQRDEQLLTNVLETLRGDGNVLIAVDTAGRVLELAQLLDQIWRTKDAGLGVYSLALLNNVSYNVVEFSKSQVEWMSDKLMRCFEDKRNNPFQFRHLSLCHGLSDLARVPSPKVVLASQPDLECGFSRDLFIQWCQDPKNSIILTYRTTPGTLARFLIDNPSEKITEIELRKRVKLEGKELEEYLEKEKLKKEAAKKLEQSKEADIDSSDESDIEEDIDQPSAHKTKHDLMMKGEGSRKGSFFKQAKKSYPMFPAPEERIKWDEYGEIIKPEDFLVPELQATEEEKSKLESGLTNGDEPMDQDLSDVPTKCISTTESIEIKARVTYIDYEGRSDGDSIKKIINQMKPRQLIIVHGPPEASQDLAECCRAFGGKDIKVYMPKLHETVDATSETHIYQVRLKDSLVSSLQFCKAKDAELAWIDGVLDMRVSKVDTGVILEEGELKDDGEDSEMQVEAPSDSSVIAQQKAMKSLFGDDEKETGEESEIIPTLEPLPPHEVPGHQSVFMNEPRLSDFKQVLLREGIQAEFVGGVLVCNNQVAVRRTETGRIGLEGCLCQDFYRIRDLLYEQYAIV
UniProt P24311, whole entry, looked up: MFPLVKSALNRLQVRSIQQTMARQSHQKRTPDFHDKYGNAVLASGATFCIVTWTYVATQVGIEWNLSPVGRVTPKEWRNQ
UniProt Q9NX08, whole entry, looked up: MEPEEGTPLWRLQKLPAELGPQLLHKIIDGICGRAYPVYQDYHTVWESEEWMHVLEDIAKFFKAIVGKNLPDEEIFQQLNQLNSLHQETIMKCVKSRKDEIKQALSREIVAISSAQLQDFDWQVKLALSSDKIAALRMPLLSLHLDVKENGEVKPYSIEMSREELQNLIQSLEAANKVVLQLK
UniProt P61923: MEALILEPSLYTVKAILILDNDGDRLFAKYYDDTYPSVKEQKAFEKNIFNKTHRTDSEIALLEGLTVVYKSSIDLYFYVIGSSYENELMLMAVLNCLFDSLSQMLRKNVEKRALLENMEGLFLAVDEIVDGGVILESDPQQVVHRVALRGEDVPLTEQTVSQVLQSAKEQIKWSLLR
UniProt Q49AN0: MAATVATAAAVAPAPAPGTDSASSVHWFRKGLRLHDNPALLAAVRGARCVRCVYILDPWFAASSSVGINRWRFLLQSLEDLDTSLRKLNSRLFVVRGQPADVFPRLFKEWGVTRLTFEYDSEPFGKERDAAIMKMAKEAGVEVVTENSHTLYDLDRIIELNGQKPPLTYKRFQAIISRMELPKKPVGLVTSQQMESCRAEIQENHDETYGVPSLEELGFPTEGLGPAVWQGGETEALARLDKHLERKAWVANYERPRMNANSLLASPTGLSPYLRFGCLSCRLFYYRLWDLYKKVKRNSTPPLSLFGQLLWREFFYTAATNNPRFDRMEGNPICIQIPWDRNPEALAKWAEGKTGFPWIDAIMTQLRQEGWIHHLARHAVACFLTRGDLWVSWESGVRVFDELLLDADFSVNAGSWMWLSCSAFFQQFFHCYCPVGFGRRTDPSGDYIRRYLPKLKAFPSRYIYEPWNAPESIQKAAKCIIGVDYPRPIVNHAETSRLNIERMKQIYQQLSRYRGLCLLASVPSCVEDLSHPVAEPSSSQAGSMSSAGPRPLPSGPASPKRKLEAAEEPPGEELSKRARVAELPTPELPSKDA
UniProt Q9Y2Z9: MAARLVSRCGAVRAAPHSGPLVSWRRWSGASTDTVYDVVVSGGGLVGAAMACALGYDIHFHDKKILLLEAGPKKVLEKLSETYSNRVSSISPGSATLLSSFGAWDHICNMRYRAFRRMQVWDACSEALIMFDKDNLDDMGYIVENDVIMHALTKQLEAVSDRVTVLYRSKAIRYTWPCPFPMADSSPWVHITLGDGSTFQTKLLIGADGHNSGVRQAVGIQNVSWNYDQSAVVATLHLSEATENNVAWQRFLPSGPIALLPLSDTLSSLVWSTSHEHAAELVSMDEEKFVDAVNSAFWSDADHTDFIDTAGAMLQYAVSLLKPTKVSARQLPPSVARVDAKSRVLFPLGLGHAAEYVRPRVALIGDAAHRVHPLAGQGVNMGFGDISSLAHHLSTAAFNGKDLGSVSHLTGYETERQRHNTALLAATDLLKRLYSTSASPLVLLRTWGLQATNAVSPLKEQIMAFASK
UniProt Q9BWP8: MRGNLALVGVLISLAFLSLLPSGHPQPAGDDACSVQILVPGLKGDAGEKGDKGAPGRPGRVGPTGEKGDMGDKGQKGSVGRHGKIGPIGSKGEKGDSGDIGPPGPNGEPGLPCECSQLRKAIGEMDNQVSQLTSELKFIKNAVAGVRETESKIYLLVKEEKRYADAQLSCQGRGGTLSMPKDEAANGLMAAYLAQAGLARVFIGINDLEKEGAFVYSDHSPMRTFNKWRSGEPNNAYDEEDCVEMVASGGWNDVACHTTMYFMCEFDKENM
UniProt O75575: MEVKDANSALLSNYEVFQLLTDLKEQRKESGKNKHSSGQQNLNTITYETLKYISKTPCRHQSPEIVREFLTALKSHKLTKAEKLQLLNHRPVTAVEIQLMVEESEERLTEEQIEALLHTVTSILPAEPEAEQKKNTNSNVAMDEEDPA
UniProt Q53ET0: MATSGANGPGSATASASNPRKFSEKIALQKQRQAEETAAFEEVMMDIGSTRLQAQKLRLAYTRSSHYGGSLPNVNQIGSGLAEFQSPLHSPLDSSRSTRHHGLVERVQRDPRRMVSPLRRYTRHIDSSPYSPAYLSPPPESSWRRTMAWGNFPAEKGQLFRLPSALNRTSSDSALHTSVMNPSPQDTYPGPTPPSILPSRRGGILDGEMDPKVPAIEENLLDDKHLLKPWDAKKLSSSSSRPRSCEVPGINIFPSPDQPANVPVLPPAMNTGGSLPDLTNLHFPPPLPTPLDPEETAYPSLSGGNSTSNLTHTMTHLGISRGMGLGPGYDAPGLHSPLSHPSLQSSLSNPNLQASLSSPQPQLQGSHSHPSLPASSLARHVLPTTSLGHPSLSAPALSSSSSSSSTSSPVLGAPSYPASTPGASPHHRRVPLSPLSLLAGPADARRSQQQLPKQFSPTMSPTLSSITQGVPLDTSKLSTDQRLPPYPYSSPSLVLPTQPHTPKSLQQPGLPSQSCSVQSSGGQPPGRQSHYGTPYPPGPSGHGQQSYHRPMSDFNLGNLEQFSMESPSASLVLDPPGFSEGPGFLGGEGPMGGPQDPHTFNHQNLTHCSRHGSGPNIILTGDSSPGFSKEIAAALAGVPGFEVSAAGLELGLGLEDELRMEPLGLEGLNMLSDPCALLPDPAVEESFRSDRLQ
UniProt O75718: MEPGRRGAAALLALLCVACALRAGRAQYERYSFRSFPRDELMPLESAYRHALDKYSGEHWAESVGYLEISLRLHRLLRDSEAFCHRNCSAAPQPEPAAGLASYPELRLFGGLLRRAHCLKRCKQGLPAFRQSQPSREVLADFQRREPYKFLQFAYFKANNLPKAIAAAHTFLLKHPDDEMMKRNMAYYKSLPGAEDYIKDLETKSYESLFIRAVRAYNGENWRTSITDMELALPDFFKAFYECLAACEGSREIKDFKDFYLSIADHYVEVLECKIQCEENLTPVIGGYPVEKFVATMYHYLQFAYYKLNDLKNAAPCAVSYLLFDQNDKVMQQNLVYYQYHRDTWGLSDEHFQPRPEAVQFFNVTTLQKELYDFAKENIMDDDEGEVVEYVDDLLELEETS
UniProt Q96I36: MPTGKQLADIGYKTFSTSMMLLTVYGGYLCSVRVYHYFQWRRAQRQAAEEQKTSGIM
UniProt P02461, whole entry, looked up: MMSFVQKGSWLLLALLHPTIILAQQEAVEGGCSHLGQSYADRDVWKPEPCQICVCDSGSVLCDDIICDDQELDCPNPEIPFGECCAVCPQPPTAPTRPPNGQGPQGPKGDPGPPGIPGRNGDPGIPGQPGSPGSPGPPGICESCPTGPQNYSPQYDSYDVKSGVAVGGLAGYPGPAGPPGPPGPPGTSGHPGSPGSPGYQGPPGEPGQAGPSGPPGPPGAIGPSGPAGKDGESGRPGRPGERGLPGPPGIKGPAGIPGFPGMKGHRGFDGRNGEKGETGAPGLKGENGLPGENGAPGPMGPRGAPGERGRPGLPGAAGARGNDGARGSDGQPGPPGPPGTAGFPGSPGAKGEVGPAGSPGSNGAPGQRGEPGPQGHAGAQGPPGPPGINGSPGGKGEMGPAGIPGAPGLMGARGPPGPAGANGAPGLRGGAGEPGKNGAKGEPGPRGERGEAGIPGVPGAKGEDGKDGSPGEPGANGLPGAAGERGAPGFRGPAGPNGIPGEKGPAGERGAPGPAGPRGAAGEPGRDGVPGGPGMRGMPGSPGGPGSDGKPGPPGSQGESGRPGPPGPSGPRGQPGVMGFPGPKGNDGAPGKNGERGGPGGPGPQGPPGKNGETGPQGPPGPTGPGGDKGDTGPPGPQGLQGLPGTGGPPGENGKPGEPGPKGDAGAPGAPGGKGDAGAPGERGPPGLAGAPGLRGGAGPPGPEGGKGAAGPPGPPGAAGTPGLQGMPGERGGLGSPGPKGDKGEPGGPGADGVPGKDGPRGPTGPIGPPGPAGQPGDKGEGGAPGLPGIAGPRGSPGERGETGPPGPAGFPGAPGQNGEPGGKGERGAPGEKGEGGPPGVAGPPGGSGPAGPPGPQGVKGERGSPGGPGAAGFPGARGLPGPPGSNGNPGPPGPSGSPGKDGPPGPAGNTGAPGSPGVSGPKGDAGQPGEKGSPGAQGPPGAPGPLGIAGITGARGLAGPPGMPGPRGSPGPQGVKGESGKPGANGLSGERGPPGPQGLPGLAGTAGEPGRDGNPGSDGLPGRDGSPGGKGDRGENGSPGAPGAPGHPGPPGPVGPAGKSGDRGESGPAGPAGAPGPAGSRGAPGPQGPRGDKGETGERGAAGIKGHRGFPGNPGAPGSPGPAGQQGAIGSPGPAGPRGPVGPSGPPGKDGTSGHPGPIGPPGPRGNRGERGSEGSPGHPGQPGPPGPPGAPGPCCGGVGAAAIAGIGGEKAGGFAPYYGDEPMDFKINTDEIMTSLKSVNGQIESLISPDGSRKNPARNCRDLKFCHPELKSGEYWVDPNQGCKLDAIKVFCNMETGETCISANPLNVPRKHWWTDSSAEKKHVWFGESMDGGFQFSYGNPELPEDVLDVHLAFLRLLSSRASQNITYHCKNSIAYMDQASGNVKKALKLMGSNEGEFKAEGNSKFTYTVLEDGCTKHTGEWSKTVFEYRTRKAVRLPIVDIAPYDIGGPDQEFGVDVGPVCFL
UniProt Q9HCH3: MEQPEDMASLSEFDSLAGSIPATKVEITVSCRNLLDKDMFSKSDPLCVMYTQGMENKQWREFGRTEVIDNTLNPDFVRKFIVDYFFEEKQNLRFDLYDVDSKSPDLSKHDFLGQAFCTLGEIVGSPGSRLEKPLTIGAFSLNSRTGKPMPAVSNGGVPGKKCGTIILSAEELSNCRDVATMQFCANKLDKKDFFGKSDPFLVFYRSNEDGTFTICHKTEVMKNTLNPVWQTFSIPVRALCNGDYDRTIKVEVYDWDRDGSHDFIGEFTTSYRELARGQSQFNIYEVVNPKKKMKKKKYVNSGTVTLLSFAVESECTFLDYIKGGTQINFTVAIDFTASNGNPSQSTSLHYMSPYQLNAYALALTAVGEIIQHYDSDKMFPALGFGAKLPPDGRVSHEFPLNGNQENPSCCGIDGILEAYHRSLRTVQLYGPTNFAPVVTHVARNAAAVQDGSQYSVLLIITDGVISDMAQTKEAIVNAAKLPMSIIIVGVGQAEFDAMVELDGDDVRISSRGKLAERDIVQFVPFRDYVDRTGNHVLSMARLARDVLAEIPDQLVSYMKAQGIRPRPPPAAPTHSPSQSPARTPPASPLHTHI
UniProt Q14894: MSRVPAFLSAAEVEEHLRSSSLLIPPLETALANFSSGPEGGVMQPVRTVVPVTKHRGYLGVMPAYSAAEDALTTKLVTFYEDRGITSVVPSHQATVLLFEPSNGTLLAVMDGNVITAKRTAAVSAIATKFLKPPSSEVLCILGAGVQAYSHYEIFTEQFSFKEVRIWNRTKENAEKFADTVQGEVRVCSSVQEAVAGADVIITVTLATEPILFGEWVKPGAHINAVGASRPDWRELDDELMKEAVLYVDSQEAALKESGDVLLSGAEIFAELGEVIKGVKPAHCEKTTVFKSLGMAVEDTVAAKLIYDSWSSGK

Compound in the first experiment: C1=CC=C(C=C1)[C@H](COC2=CC3=C(C=C2)NC(=O)N3)NC(=O)C4=CC=CN(C4=O)CC5=CC(=C(C=C5)F)F
The experiment in a line: log2 fold change, soluble protein after heating vs DMSO (PISA); higher = thermal stabilisation; K562 cells, 10 uM, 30 min; active = over 0.2 and 3.5 SD of the protein, either way, in both replicates (recomputed). The procedure, abridged: (§1)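 Quantification of soluble protein used TMTpro 16plex LC-MS/MS, with channel sums equalised. Samples were the supernatant after 21,000xg for 90 min of pooled aliquots from K562 cells (2×10^6 cells/mL) treated with 10 μM compound for 30 min, heated for 3 min over 48°C-58°C, and extracted in PBS with 0.5% NP-40 at 4°C. Values, from duplicates, describe thermal stability against control samples on a log2 fold-change scale.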
As for COPS7A (UniProt Q9UBW8), the log2 fold change is inactive: -0.008.

In the case of COX7C (UniProt P15954), the log2 fold change was inactive: -0.023.

With COMP (UniProt P49747), the log2 fold change was inactive: 0.03.

For the target CSGALNACT2 (UniProt Q8N6G5), the log2 fold change was inactive: 0.035.

As to CPSF2 (UniProt Q9P2I0), the log2 fold change is inactive: -0.096.

In the case of COX7B (UniProt P24311), the log2 fold change was inactive: -0.003.

Take COQ10B (UniProt Q9H8M1): the log2 fold change was inactive: -0.023.

Take COMMD8 (UniProt Q9NX08): the log2 fold change is inactive: 0.018.

As for COPZ1 isoform 4 (UniProt P61923), the log2 fold change was inactive: 0.016.

CRY2 (UniProt Q49AN0): the log2 fold change was inactive: -0.034.

As for COQ6 (UniProt Q9Y2Z9), the log2 fold change was inactive: 0.023.

On to COLEC11 isoform 10 (UniProt Q9BWP8), for which the log2 fold change was inactive: 0.024.

On to CRCP (UniProt O75575), for which the log2 fold change is inactive: 0.1.

Take COMMD1 (UniProt Q8N668): the log2 fold change was inactive: 0.099.

With CRTC2 (UniProt Q53ET0), the log2 fold change was inactive: 0.006.

For CPLX1 (UniProt O14810), the log2 fold change was inactive: 0.053.

As to COPS3 isoform 2 (UniProt Q9UNS2), the log2 fold change was inactive: 0.009.

Regarding CPN1 (UniProt P15169), the log2 fold change is inactive: -0.12.

Turning to CRTAP (UniProt O75718), the log2 fold change is inactive: 0.057.

Take CRTC1 isoform 2 (UniProt Q6UUV9): the log2 fold change was inactive: -0.036.

For the target COX14 (UniProt Q96I36), the log2 fold change was inactive: 0.065.

Compound in another experiment: CC1=C(SC2=C1C(=N[C@H](C3=NN=C(N32)C)CC(=O)N)C4=CC=C(C=C4)Cl)C
Described as above. The procedure, abridged:
as §1
Take COPS7A (UniProt Q9UBW8): the log2 fold change is inactive: 0.073.

In the case of COMP (UniProt P49747), the log2 fold change was inactive: -0.21.

CSGALNACT2 (UniProt Q8N6G5): the log2 fold change was inactive: 0.049.

COP1 (UniProt Q8NHY2): the log2 fold change is inactive: -0.069.

As for COX7B (UniProt P24311), the log2 fold change was inactive: 0.001.

In the case of CRAT (UniProt P43155), the log2 fold change is inactive: -0.289.

Take COQ10B (UniProt Q9H8M1): the log2 fold change is inactive: 0.078.

On to CRLS1 (UniProt Q9UJA2), for which the log2 fold change is inactive: -0.005.

COMMD8 (UniProt Q9NX08): the log2 fold change is inactive: 0.068.

Take COMMD3-BMI1 (UniProt R4GMX3): the log2 fold change was inactive: -0.114.

Turning to COL3A1 (UniProt P02461), the log2 fold change is inactive: 0.077.

Turning to COPZ1 isoform 4 (UniProt P61923), the log2 fold change was inactive: 0.126.

Take CPNE5 (UniProt Q9HCH3): the log2 fold change was inactive: -0.16.

On to CRYM (UniProt Q14894), for which the log2 fold change was inactive: 0.082.

Take COQ6 (UniProt Q9Y2Z9): the log2 fold change is inactive: 0.047.

For COLEC11 isoform 10 (UniProt Q9BWP8), the log2 fold change is inactive: 0.011.

In the case of COL2A1 (UniProt P02458), the log2 fold change is inactive: -0.249.

For CRCP (UniProt O75575), the log2 fold change is inactive: 0.025.

In the case of COX17 (UniProt Q14061), the log2 fold change was inactive: 0.12.

For CRADD (UniProt P78560), the log2 fold change was inactive: 0.022.

With CRTAP (UniProt O75718), the log2 fold change was inactive: -0.063.

For CRYAB (UniProt P02511), the log2 fold change was inactive: -0.148.

For the target COX14 (UniProt Q96I36), the log2 fold change is inactive: 0.025.

Values taken from the supplement of paper PMC10849652.
